# Measured values: PubChem BioAssay AID493014 (National Center for Advancing Translational Sciences (NCATS), 2011)
# Some of the results follow. Further columns of the screen follow, without active or inactive calls. Compounds called inactive in the main read-out are mostly missing here. Potencies come from curve fits of mixed quality, noted in brackets.
# Assay: qHTS Assay to Find Inhibitors of Chronic Active B-Cell Receptor Signaling
# Conditions: ABC-DLBCL IkBa-CBG/CBR reporter, luminescence ratio (green luciferase fused to IkBa over red control in TMD8 lymphoma cells), 4 h
# Summary of the method: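 Cell line TMD8 (human ABC DLBCL), stably expressing tet-inducible CBG68-IkBa fusion and CBR; IMDM/0.5% FBS; cpd up to 46 uM; dox induction, 4 h, 37C/5% CO2; dual luminescence; green/red ratio; MG132 control.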
# [1] = measured here: CBR red luminescence, cell number
SMILES,AC50 [1],AC50 (measured here: IkBa-CBG green luminescence)
CC(C)(C)OC(=O)NCC12C=CC(O1)C1C(=O)N(Cc3ccccc3)C(=O)C12 (centres undefined),"2.91 µM [falling, single point]",–
CCOc1ccc(Nc2nc3ccccc3n3cnnc23)cc1,"2.82 µM [rising, full curve, poor fit]",–
CCCCN1Cc2cc(C(=O)c3cc(OC)ccc3O)cnc2NC1=O,"0.708 µM [rising, full curve]",–
CCCCOc1ccc(C(=O)N/C(=C/C=C/c2ccccc2)C(=O)NCCO)cc1,"20.6 µM [rising, single point]","25.9 µM [falling, partial curve, poor fit]"
CCOC(=O)Cn1ccc(NC(=O)COc2ccc(F)cc2)n1,"10 µM [falling, partial curve]",–
Cc1ccc(/C=C/C(=O)NCCc2cccc(Cl)c2)o1,"22.4 µM [falling, single point]",–
COc1ccc(/C=C/C(=O)Nc2ccccc2C(F)(F)F)cc1,"2.06 µM [falling, full curve]",–
CC[C@@H]1CC=C[C@H]2[C@H]1C(=O)N(Cc1ccccc1)[C@H]2c1ccoc1,"35.5 µM [falling, single point]",–
COc1cc2nc(Nc3cccc(F)c3)nc(N)c2cc1OC,"35.5 µM [falling, single point]",–
COc1cc(NC(=O)CSc2nc3c(c(=O)n(C)c(=O)n3C)n2C)cc(OC)c1,"12.6 µM [falling, partial curve, poor fit]",–
COc1ccc(/C=N/NC(=O)c2cccc(Br)c2)cc1Cn1cc(Cl)cn1,"10 µM [falling, partial curve]",–
COc1cc(NC(=O)C2C3C=CC(C3)C2C(=O)O)ccc1NC(=O)c1ccccc1 (centres undefined),"35.5 µM [falling, single point]",–
c1ccc(SCc2nc(-c3cccnc3)no2)cc1,"0.58 µM [falling, full curve, poor fit]",–
CC(=O)Nc1ccc(NC(=O)c2ccccc2C)cc1,"8.2 µM [falling, partial curve, poor fit]",–
NC(=O)c1ccsc1NC(=O)COC(=O)CCCOc1ccccc1,"2.31 µM [falling, partial curve, poor fit]",–
O=C(Nc1ccc(Cl)cc1)NC1CCCC1Cc1ccco1 (centres undefined),"4.11 µM [falling, single point]",–
S=C(Nc1ccc2nsnc2c1)NC1CCCCC1,"16.4 µM [falling, single point]",–
COc1cc(/C=C(\C#N)c2nnc(N3CCOCC3)n2-c2ccccc2)ccc1O,"5.8 µM [falling, partial curve, poor fit]",–

# A few values from the list.
# Entry for `COc1cc(NC(=O)CSc2nc3c(c(=O)n(C)c(=O)n3C)n2C)cc(OC)c1` under AC50 [1]: 12.6 µM [falling, partial curve, poor fit]
# Entry for `COc1ccc(/C=N/NC(=O)c2cccc(Br)c2)cc1Cn1cc(Cl)cn1` under AC50 [1]: 10 µM [falling, partial curve]
